Data as given in PubChem BioAssay AID652243 (Drosophila RNAi Screening Center, 2013)
The deposit covers about 24,000 reagents; shown is an unselected part of those with a known target gene and a result. Over the whole deposit, 246 (1%) were called active. 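Plates not normalised; calls are printed but the firefly/Renilla ratio behind them is not deposited; fold cut for lowering reported inconsistently.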 Raw values are not corrected between plates. Names joined by + are all predicted targets of the reagent. Not stated in the record: the amount of reagent.

Assay: 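Fly regulators of androgen-dependent reporter output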 (primary screen)
Cell system: Drosophila S2R+ cells
Knock-down reagent: long dsRNA against Drosophila genes
Time to read-out: 72 h (48 h, then 24 h hormone)
Treatment: synthetic androgen R1881 at 10 nM for 24 h
Measurement: 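Per-well raw luminescence of the androgen-driven firefly reporter and of the Renilla control, two replicates each, without normalisation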
Scale: firefly reporter light: higher = more light from androgen-responsive reporter; Renilla control light: higher = more constitutive control signal (cell number, transfection)
Rule for the call: 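Across duplicate plates, a knock-down whose log firefly/Renilla ratio shifted a set fold down or up from the GFP/LacZ control mean was a hit; the downward cut appears as both 1.5 and 3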
Calls: active = hit: reporter lowered or raised; inactive = no hit

Hacd1 (3-hydroxyacyl-CoA dehydratase 1) [DRSC02988] showed firefly reporter light, replicate 1 = 6.15e5; firefly reporter light, replicate 2 = 8.32e5; Renilla control light, replicate 1 = 1.26e6; Renilla control light, replicate 2 = 1.51e6; inactive.
Knock-down of Cht12 (Chitinase 12) [DRSC03844] came out at: firefly reporter light, replicate 1 = 1.56e5; firefly reporter light, replicate 2 = 1.10e5; Renilla control light, replicate 1 = 3.43e5; Renilla control light, replicate 2 = 3.57e5; inactive.
Against blow (blown fuse) [DRSC07586], the values are firefly reporter light, replicate 1 = 8.84e5; firefly reporter light, replicate 2 = 4.28e5; Renilla control light, replicate 1 = 1.55e6; Renilla control light, replicate 2 = 1.42e6; inactive.
Silencing of blow (blown fuse) [DRSC27716] resulted in: firefly reporter light, replicate 1 = 2.06e5; firefly reporter light, replicate 2 = 2.30e5; Renilla control light, replicate 1 = 6.45e5; Renilla control light, replicate 2 = 6.58e5; inactive.
CG6125 [DRSC15970] showed firefly reporter light, replicate 1 = 86789; firefly reporter light, replicate 2 = 1.35e5; Renilla control light, replicate 1 = 1.85e6; Renilla control light, replicate 2 = 2.25e6; inactive.
With knock-down of flap (flapper) [DRSC03918], the screen gave firefly reporter light, replicate 1 = 1.34e5; firefly reporter light, replicate 2 = 1.95e5; Renilla control light, replicate 1 = 3.18e5; Renilla control light, replicate 2 = 6.30e5; inactive.
flap (flapper) [DRSC04087] gave firefly reporter light, replicate 1 = 9.49e5; firefly reporter light, replicate 2 = 9.44e5; Renilla control light, replicate 1 = 1.80e6; Renilla control light, replicate 2 = 1.52e6; inactive.
With knock-down of inaE (inactivation no afterpotential E) [DRSC19376], the record shows firefly reporter light, replicate 1 = 6.87e5; firefly reporter light, replicate 2 = 6.99e5; Renilla control light, replicate 1 = 3.34e6; Renilla control light, replicate 2 = 3.83e6; inactive.
Depletion of inaE (inactivation no afterpotential E) [DRSC19377] gave: firefly reporter light, replicate 1 = 99884; firefly reporter light, replicate 2 = 98720; Renilla control light, replicate 1 = 4.56e5; Renilla control light, replicate 2 = 5.47e5; inactive.
Knock-down of inaE (inactivation no afterpotential E) [DRSC19379] came out at: firefly reporter light, replicate 1 = 5.84e5; firefly reporter light, replicate 2 = 8.14e5; Renilla control light, replicate 1 = 8.30e5; Renilla control light, replicate 2 = 1.40e6; inactive.
Knock-down of inaE (inactivation no afterpotential E) [DRSC26883] came out at: firefly reporter light, replicate 1 = 5.19e5; firefly reporter light, replicate 2 = 5.54e5; Renilla control light, replicate 1 = 9.67e5; Renilla control light, replicate 2 = 5.54e5; inactive.
After knock-down of CG12325 [DRSC06130], the screen gave firefly reporter light, replicate 1 = 9.64e5; firefly reporter light, replicate 2 = 8.55e5; Renilla control light, replicate 1 = 1.53e6; Renilla control light, replicate 2 = 9.92e5; inactive.
With knock-down of CG7560 [DRSC10879] the results were firefly reporter light, replicate 1 = 3.03e5; firefly reporter light, replicate 2 = 3.03e5; Renilla control light, replicate 1 = 3.06e6; Renilla control light, replicate 2 = 3.08e6; inactive.
After knock-down of mRpL19 (mitochondrial ribosomal protein L19) [DRSC16367] the results were firefly reporter light, replicate 1 = 4.11e5; firefly reporter light, replicate 2 = 3.25e5; Renilla control light, replicate 1 = 2.92e6; Renilla control light, replicate 2 = 2.57e6; inactive.
For mRpL19 (mitochondrial ribosomal protein L19) [DRSC21618], the entry reads firefly reporter light, replicate 1 = 8.01e5; firefly reporter light, replicate 2 = 6.33e5; Renilla control light, replicate 1 = 3.45e6; Renilla control light, replicate 2 = 2.18e6; inactive.
Against mRpL19 (mitochondrial ribosomal protein L19) [DRSC26104] the deposit lists firefly reporter light, replicate 1 = 3.23e5; firefly reporter light, replicate 2 = 2.85e5; Renilla control light, replicate 1 = 9.09e5; Renilla control light, replicate 2 = 7.51e5; inactive.
With knock-down of Ppi1 (Protein phosphatase 1c interacting protein 1) [DRSC15421], the record shows firefly reporter light, replicate 1 = 41745; firefly reporter light, replicate 2 = 42740; Renilla control light, replicate 1 = 4.82e5; Renilla control light, replicate 2 = 2.94e5; inactive.
After knock-down of Ncoa6 (Nuclear receptor coactivator 6) [DRSC23060], the record shows firefly reporter light, replicate 1 = 5.76e5; firefly reporter light, replicate 2 = 8.70e5; Renilla control light, replicate 1 = 1.27e6; Renilla control light, replicate 2 = 1.84e6; inactive.
Silencing of Ncoa6 (Nuclear receptor coactivator 6) [DRSC25819] resulted in: firefly reporter light, replicate 1 = 2.00e5; firefly reporter light, replicate 2 = 2.13e5; Renilla control light, replicate 1 = 4.29e5; Renilla control light, replicate 2 = 3.91e5; inactive.
Depletion of CG13218 [DRSC06340] came out at: firefly reporter light, replicate 1 = 2.42e5; firefly reporter light, replicate 2 = 1.89e5; Renilla control light, replicate 1 = 1.79e6; Renilla control light, replicate 2 = 1.66e6; inactive.
For CG13218 [DRSC26951] the deposit lists firefly reporter light, replicate 1 = 3.30e5; firefly reporter light, replicate 2 = 1.67e5; Renilla control light, replicate 1 = 1.10e6; Renilla control light, replicate 2 = 7.15e5; inactive.
CG12017 [DRSC08225] gave firefly reporter light, replicate 1 = 1.27e5; firefly reporter light, replicate 2 = 1.11e5; Renilla control light, replicate 1 = 1.58e6; Renilla control light, replicate 2 = 1.64e6; inactive.
With knock-down of CG12017 [DRSC28937], the screen gave firefly reporter light, replicate 1 = 3.45e5; firefly reporter light, replicate 2 = 3.17e5; Renilla control light, replicate 1 = 7.45e5; Renilla control light, replicate 2 = 8.63e5; inactive.
Knock-down of CR32821 + CR43381 + CR43377 + 1 more [DRSC22544] gave: firefly reporter light, replicate 1 = 8.84e5; firefly reporter light, replicate 2 = 9.42e5; Renilla control light, replicate 1 = 1.20e6; Renilla control light, replicate 2 = 1.12e6; inactive.
Against Gr63a (Gustatory receptor 63a) [DRSC08438], the entry reads firefly reporter light, replicate 1 = 92278; firefly reporter light, replicate 2 = 81422; Renilla control light, replicate 1 = 8.47e5; Renilla control light, replicate 2 = 1.01e6; inactive.
After knock-down of CG3528 [DRSC00611], the record shows firefly reporter light, replicate 1 = 60964; firefly reporter light, replicate 2 = 42275; Renilla control light, replicate 1 = 5.51e5; Renilla control light, replicate 2 = 4.04e5; inactive.
Silencing of CG3528 [DRSC26034] came out at: firefly reporter light, replicate 1 = 3.11e5; firefly reporter light, replicate 2 = 3.21e5; Renilla control light, replicate 1 = 6.10e5; Renilla control light, replicate 2 = 6.12e5; inactive.

Sorted by “Renilla control light, replicate 1” (lowest first): some entries from above
CG3528 [DRSC00611] | firefly reporter light, replicate 1 = 60964; firefly reporter light, replicate 2 = 42275; Renilla control light, replicate 1 = 5.51e5; Renilla control light, replicate 2 = 4.04e5; Call = inactive
Gr63a (Gustatory receptor 63a) [DRSC08438] | firefly reporter light, replicate 1 = 92278; firefly reporter light, replicate 2 = 81422; Renilla control light, replicate 1 = 8.47e5; Renilla control light, replicate 2 = 1.01e6; Call = inactive
